Reference: patent US8859559B2, “Substituted pyrazines and their use in the treatment of disease” (Boehringer Ingelheim International GmbH, priority 2011, dated 2014)

Chains of the proteins cited; added tags and fusions are not shown.
UniProt Q61180, whole entry: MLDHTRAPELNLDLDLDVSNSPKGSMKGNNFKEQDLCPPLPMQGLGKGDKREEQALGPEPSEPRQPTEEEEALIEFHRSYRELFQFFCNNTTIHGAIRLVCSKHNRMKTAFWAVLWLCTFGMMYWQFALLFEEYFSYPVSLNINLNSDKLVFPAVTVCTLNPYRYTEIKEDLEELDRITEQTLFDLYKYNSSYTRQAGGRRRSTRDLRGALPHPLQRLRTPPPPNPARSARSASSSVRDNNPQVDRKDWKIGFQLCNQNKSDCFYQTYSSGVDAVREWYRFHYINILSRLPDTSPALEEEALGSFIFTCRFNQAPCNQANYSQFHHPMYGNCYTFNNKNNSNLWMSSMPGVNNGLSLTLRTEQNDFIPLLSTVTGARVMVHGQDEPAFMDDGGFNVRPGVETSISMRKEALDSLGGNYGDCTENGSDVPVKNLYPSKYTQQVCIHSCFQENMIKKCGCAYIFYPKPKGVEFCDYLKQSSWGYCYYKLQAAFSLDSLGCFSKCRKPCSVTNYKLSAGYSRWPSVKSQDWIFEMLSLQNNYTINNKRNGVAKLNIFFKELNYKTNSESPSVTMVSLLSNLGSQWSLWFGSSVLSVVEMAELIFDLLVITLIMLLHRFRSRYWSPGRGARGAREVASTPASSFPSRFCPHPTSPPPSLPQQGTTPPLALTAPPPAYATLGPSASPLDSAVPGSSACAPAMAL
UniProt Q9WU38, whole entry: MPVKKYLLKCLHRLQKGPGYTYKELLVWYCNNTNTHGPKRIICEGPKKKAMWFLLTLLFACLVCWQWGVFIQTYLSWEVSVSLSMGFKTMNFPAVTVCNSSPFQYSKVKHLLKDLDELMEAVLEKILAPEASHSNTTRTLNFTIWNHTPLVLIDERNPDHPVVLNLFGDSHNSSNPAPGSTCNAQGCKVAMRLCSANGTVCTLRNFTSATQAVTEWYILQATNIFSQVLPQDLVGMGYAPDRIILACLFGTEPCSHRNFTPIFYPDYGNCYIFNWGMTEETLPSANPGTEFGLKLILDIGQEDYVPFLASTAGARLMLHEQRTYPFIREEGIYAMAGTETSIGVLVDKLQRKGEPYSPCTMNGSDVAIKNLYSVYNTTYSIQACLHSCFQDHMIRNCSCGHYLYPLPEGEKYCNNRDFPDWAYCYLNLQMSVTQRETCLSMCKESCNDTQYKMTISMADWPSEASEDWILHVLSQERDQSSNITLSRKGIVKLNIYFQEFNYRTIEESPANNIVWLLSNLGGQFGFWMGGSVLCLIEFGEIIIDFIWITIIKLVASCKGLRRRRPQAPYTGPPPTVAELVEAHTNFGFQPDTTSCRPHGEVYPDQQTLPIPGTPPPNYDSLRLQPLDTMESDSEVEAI
UniProt Q9WU39, whole entry: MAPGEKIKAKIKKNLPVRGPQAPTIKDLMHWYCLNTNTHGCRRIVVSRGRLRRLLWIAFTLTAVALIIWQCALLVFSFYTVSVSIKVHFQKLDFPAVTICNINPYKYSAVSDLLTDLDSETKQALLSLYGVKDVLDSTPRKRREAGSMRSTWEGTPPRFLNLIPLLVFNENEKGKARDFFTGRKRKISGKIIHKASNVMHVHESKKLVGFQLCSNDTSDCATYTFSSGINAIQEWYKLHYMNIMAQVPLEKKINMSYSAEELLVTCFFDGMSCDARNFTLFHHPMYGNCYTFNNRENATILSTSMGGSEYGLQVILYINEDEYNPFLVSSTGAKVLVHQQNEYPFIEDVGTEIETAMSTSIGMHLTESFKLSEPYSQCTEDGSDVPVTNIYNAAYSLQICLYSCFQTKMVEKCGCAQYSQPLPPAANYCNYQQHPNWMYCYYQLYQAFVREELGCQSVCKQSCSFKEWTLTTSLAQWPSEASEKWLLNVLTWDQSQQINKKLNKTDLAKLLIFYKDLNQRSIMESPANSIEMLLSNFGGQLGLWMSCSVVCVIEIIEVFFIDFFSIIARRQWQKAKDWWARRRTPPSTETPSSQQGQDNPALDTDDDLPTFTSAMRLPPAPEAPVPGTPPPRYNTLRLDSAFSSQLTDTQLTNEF

Biological target: ENaC (Epithelial Sodium Channel) (Mus musculus, UniProt Q61180+Q9WU38+Q9WU39)
Assay: Ussing chamber: inhibition of amiloride sensitive short circuit current (I_sc) in M-1 cells
Conditions: mouse kidney M-1 cells
Description: Mouse kidney M-1 cells were cultivated in DMEM containing 5% FCS and 5 μM dexamethasone for 10 to 12 days on polyester transwell filters. Filters were inserted into a teflon-coated well-plate which fit into the in-house ussing chamber system. Prior to measurement the medium of M-1 cells was replaced with Caco-2 transport buffer (Invitrogen, Germany). During measurements, the Ussing chamber temperature was kept at 37° C. Short circuit currents (I_sc) were measured in the voltage-clamp mode using an in-house built amplifier (Boehringer Ingelheim, Biberach) with the software package Lab View for data acquisition and analysis. The transepithelial electrical resistance (TEER) was determined by the application of voltage steps of ±5 mV every 5 sec. Compounds were administered at a final concentration of 3 μM or at increasing concentrations (1-3-10 μM) to the apical solution. At the end of each experiment the amiloride sensitive I_SC was measured by adding 3 μM amiloride to the apical compartment. Results are expressed as inhibition in percent of the amiloride effect or as IC50. With the example compounds given above, the following IC50 values were determined in the Ussing Chamber assay: […]

An IC50 of 15 nM was found for CN(C)CCCN(CCCN(C)C)C(=O)c1ccc(CN2CCC(NC(N)=NC(=O)c3nc(Cl)c(N)nc3N)CC2)cc1 in this work.

The match of structure and compound is tentative.
